Consider 31 targets from the supplement of paper PMC12819154, “High-throughput peptide-centric local stability assay extends protein–ligand identification to membrane proteins, tissues and bacteria” (Nature Structural & Molecular Biology, 2025).

Sequences of proteins named here, by UniProt entry; tags and fusion partners are left off. A change or cut given only in a name is not applied to a line headed by its entry.
UniProt O88829: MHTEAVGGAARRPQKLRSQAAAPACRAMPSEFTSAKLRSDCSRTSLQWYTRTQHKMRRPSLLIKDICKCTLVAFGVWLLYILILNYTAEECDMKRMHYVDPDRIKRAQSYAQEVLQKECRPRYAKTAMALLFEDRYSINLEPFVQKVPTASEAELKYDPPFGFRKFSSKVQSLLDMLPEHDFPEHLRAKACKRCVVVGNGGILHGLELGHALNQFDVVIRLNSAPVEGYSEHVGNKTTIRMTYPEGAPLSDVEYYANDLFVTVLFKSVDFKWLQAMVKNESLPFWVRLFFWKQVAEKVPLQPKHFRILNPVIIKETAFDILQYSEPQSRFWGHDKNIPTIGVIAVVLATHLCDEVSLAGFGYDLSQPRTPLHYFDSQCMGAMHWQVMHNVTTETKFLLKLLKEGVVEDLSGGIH
UniProt O55106: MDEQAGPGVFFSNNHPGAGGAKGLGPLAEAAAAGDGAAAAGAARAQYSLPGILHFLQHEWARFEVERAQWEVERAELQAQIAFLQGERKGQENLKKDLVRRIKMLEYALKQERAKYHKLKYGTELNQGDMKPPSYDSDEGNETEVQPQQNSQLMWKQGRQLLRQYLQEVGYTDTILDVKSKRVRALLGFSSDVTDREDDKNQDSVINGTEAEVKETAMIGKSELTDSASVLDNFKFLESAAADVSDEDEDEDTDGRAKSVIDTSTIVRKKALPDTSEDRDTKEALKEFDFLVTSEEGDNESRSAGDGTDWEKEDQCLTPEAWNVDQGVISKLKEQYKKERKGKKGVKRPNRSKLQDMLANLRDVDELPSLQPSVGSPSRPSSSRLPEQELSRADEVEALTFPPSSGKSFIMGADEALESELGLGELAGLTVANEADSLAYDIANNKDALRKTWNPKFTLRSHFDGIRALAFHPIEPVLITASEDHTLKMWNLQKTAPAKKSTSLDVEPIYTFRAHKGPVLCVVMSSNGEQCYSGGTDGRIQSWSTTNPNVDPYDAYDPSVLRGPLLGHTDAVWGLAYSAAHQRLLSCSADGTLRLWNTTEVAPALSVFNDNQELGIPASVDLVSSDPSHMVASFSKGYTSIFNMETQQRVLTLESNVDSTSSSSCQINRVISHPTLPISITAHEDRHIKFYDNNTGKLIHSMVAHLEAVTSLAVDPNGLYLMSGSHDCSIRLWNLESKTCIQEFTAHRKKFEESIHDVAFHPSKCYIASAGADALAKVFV
UniProt O35625, whole entry: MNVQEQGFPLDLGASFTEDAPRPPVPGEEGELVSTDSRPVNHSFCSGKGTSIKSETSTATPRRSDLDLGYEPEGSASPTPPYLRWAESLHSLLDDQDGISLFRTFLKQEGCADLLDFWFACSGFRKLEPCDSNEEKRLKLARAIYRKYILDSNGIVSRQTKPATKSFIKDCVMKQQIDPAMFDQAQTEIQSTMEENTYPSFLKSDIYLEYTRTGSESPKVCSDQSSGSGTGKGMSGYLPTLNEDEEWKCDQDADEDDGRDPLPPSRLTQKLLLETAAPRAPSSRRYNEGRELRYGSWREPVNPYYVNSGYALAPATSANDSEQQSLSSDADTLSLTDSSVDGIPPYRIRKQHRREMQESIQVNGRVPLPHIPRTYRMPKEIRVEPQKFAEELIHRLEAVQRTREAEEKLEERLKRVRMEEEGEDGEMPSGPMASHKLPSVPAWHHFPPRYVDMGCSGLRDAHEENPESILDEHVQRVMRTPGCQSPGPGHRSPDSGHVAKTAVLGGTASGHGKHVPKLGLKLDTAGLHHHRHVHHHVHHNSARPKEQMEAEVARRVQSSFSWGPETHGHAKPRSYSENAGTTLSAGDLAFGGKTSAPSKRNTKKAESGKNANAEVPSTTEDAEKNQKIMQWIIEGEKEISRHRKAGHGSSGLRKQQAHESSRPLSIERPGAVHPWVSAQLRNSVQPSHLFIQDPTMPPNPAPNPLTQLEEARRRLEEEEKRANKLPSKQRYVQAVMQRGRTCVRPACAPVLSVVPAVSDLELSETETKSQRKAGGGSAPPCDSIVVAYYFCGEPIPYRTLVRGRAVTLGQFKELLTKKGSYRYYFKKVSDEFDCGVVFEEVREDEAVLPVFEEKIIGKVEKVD
UniProt O88531: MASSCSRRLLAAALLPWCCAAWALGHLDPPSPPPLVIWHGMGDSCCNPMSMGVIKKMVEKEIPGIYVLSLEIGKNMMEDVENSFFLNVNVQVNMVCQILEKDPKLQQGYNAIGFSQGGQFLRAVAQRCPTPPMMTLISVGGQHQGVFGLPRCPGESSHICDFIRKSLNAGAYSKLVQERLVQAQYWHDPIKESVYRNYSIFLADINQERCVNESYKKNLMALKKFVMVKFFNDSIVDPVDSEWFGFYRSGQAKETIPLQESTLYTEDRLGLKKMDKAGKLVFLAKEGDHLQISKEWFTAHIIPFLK
UniProt O70200: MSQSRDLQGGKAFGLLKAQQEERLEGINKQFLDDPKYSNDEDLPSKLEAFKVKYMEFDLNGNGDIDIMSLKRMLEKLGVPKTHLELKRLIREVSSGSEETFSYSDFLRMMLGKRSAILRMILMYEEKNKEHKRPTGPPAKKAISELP
UniProt O70400: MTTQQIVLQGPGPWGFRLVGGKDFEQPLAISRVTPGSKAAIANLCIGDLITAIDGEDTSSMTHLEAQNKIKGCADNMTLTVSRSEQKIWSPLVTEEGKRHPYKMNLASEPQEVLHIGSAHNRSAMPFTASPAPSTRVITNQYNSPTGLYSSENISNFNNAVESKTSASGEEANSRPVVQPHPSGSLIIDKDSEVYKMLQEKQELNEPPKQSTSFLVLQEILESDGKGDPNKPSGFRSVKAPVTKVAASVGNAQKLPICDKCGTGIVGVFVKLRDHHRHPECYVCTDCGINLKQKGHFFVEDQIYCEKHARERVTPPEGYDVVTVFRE
UniProt O88848: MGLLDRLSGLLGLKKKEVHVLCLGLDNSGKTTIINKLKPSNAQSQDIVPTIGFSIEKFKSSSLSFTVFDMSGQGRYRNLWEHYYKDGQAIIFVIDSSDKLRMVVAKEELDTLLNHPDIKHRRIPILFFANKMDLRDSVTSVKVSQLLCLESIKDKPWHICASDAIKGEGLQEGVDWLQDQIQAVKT
UniProt O55033: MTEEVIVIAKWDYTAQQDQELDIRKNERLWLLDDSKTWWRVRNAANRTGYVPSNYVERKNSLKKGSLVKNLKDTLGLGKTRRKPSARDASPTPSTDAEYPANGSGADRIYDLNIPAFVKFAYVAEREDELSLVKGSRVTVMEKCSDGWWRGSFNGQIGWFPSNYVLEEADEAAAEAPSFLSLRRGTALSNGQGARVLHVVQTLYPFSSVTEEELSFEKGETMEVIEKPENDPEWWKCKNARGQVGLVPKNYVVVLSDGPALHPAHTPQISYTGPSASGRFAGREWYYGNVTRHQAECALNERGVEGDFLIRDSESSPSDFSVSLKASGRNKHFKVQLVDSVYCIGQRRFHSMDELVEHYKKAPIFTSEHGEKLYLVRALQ
UniProt O35744: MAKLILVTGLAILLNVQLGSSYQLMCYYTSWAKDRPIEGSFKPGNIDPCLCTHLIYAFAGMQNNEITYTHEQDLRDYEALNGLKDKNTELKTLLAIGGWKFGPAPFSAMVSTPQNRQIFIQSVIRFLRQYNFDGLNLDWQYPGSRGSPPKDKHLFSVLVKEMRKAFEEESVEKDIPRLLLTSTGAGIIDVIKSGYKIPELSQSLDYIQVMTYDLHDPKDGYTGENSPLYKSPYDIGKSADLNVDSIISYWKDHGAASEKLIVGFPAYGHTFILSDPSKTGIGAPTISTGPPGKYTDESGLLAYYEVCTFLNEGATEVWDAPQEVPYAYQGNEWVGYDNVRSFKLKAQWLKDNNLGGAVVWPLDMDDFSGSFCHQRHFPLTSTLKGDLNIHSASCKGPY
UniProt O70443: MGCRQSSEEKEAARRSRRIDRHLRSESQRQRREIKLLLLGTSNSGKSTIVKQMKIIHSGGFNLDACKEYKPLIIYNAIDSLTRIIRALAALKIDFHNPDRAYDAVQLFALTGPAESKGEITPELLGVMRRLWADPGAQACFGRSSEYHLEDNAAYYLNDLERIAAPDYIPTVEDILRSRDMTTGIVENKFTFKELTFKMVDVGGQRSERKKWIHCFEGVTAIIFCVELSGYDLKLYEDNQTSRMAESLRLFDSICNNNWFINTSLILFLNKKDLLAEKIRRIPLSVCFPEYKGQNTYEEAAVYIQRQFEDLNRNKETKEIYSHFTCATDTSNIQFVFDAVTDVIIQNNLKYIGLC
UniProt O70591, whole entry: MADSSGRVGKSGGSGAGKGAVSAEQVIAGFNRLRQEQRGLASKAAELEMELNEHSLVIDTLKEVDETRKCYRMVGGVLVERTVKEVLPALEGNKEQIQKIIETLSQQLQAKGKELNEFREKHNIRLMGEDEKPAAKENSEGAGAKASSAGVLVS
UniProt O55236: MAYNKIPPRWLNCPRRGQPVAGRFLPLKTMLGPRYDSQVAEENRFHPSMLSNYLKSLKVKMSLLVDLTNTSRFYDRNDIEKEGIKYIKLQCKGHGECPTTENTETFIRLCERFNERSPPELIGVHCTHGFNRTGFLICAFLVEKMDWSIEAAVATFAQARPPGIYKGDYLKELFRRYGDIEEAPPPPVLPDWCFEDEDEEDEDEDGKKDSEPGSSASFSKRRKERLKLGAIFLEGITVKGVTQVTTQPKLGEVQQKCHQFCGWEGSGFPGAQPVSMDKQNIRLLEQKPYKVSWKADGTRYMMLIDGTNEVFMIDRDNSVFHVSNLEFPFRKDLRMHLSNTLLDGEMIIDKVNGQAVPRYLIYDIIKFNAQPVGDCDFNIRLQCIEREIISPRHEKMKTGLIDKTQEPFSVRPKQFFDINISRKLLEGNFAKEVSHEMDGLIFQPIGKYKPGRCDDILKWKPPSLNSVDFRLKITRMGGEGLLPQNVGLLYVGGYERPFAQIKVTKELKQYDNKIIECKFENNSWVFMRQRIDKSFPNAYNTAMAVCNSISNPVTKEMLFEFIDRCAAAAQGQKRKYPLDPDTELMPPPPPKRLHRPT
UniProt O54931: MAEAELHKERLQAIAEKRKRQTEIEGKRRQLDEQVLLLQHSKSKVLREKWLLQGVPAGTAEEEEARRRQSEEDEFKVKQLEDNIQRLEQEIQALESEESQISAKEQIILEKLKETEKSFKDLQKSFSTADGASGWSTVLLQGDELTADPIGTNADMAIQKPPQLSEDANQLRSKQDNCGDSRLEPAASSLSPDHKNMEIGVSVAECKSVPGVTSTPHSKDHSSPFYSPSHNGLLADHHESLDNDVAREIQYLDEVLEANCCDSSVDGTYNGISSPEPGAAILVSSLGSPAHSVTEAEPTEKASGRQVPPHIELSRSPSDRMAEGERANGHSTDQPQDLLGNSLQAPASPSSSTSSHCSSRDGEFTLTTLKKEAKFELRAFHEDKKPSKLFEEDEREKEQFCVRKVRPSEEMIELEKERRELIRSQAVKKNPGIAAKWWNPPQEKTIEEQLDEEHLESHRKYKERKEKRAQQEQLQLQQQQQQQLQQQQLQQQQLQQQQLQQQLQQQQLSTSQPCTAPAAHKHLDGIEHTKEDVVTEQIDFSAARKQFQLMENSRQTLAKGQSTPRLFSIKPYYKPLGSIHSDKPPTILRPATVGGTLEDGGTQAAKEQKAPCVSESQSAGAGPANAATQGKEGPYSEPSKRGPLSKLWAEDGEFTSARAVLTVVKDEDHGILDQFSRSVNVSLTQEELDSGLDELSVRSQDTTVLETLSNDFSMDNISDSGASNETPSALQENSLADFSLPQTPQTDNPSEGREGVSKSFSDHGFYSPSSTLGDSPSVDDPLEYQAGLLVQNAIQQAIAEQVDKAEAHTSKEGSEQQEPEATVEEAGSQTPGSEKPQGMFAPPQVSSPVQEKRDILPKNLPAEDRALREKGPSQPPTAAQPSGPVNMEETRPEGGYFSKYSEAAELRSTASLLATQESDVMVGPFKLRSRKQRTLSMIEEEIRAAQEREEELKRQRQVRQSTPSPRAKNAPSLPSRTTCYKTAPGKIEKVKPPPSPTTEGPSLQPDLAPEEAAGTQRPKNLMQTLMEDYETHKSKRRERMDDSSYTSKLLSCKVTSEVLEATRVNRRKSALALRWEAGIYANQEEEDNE
UniProt O35892: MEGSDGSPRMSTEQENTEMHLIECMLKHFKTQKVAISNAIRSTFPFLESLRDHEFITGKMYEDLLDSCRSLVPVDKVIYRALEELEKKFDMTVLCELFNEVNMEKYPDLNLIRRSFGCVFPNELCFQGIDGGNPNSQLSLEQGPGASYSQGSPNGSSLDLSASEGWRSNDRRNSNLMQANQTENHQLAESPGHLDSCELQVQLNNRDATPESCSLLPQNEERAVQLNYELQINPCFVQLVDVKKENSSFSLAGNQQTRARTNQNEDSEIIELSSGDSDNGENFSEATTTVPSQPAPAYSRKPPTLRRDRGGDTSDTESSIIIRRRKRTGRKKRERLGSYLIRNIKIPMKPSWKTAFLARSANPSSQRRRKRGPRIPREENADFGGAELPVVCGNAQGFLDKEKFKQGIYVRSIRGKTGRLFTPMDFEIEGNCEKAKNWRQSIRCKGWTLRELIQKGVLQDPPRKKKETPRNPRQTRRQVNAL
UniProt O70139: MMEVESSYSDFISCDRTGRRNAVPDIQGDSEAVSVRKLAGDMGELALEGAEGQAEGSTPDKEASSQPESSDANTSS

The other results are listed elsewhere or left out. Small differences around the control level are noise.

Compound in the assay: CN[C@@H]1C[C@H]2O[C@@](C)([C@@H]1OC)n1c3ccccc3c3c4c(c5c6ccccc6n2c5c31)C(=O)NC4 [staurosporine]
Briefly: log2 fold change of tryptic peptide abundance, ligand vs vehicle (limited proteolysis) (log2 ratio); higher = more trypsin-susceptible (destabilized). To be noted: ligand concentration: 20 uM; sample: mouse liver crude lysate; replicate design: treated separately.
For “UniProt O88746 (peptide sequence: AADRLPNLASPSAEGPPRPSPGTAPR, peptide start residue: 453)”, the log2 fold change was -0.0674.

As for “UniProt O88829 (peptide sequence: ILNPVIIK, peptide start residue: 307)”, the log2 fold change was -0.215. Then “UniProt O55201 (peptide sequence: EEELGEYYMKK, peptide start residue: 132)”, with -1.01; and “UniProt O88441 (peptide sequence: RIEQHYFEDWGK, peptide start residue: 248)”, with -0.366. As for “UniProt O70250 (peptide sequence: HYGGLTGLNK, peptide start residue: 91)”, the figure is -0.418; as for “UniProt O55106 (peptide sequence: MLEYALKQER, peptide start residue: 104)”, 0.487; as for “UniProt O35625 (peptide sequence: TAVLGGTASGHGK, peptide start residue: 501)”, -0.386.

On to “UniProt O88531 (peptide sequence: LVQAQYWHDPIKESVYR, peptide start residue: 180)”, for which the log2 fold change stood at 0.336. As for “UniProt O55098 (peptide sequence: IKQFSQQEEK, peptide start residue: 839)”, the log2 fold change was -0.534. Regarding “UniProt O70200 (peptide sequence: THLELKR, peptide start residue: 82)”, the log2 fold change is -0.15.

For the target “UniProt O55102 (peptide sequence: TLQVQAAQFAK, peptide start residue: 62)”, the log2 fold change is 0.262. As for “UniProt O70400 (peptide sequence: ERVTPPEGYDVVTVFRE, peptide start residue: 311)”, the figure is -0.409; as for “UniProt O55022 (peptide sequence: RFDGVQDPR, peptide start residue: 80)”, -0.204; as for “UniProt O88485 (peptide sequence: SDLKAELERK, peptide start residue: 5)”, -0.593. Consider “UniProt O88848 (peptide sequence: KKEVHVLCLGLDNSGK, peptide start residue: 15)”, for which the log2 fold change turned out to be 0.857.

As for “UniProt O55033 (peptide sequence: LWLLDDSK, peptide start residue: 29)”, the log2 fold change was 0.117. Consider “UniProt O35744 (peptide sequence: TLLAIGGWK, peptide start residue: 92)”, for which the log2 fold change worked out at 0.209.

On to “UniProt O70443 (peptide sequence: MVDVGGQR, peptide start residue: 220)”, for which the log2 fold change is -0.334. As for “UniProt O70591 (peptide sequence: HNIRLMGEDEK, peptide start residue: 122)”, the log2 fold change was 0.257. Turning to “UniProt O55236 (peptide sequence: RKYPLDPDTELMPPPPPK, peptide start residue: 574)”, the log2 fold change was -0.475. For the target “UniProt O55131 (peptide sequence: THMQDLK, peptide start residue: 291)”, the log2 fold change is -0.349. Regarding “Q8BR92 (peptide sequence: LFEEDEREKEQFCVR, peptide start residue: 193) (UniProt O54931)”, the log2 fold change stood at 0.209. As for “UniProt O35680 (peptide sequence: RLGPTEGRPQLK, peptide start residue: 48)”, the figure is -0.0868; as for “UniProt O88470 (peptide sequence: TGALHSRLDL, peptide start residue: 366)”, 0.0749.

As for “UniProt O55142 (peptide sequence: AIFAGYKR, peptide start residue: 9)”, the log2 fold change is 0.389. As to “UniProt O54818 (peptide sequence: SWHDMQTTTAYKK, peptide start residue: 86)”, the log2 fold change was 0.318.

With “UniProt O35892 (peptide sequence: GVLQDPPR, peptide start residue: 456)”, the log2 fold change worked out at 0.133. As for “UniProt O70546 (peptide sequence: YAQYQASSFQESLREENEKR, peptide start residue: 1035)”, the figure is 0.689; as for “UniProt O70139 (peptide sequence: RNAVPDIQGDSEAVSVR, peptide start residue: 20)”, 0.103; as for “UniProt O88508 (peptide sequence: HPPVESSDTPKDPAVTTK, peptide start residue: 54)”, -0.41. On to “UniProt O54992 (peptide sequence: LCDFGFAK, peptide start residue: 167)”, for which the log2 fold change is -0.507.
